For this experiment, the system named is MCF-7 cells. Put plainly: MTT cytotoxicity assay against MCF-7 cells. Type of experiment: cell-based. Particulars: Homo sapiens, MCF7, read-out: IC50 ± SD MCF-7.

Molecules are shown by their SMILES.

For `CN[C@@H]1C[C@H]2O[C@@](C)([C@@H]1OC)n1c3ccccc3c3c4c(c5c6ccccc6n2c5c31)C(=O)NC4` [Staurosporine, reference compound], the 50% inhibitory concentration (IC50) came to 6.76 ± 0.51 µM.

For the origin of these results see paper PMC10996840 (RSC Advances, 2024).
